Measurements reported in publication PMC9579038.

What was measured:
[1] = molecular target: FMNL2-BirA* (formin-like 2 fused to BirA*) (human); assay: proximity labelling; BioID screen with FMNL2-BirA* in HEK293T cells; SILAC-based quantitative mass spectrometry; filtered in silico for known background contaminants
[2] = molecular target: FMNL2-BirA* (formin-like 2 fused to BirA*) (human); assay: proximity labelling; FMNL2-BirA* transiently expressed in HEK293T/17 cells treated with biotin; biotinylated proteins isolated on streptavidin-agarose and immunoblotted for the endogenous proteins; FMNL2-mCherry cells as control

B1: IRTKS (BAIAP2L1), endogenous (protein, UniProt Q9UHR4 1-511)
chain: MSRGPEEVNRLTESTYRNVMEQFNPGLRNLINLGKNYEKAVNAMILAGKAYYDGVAKIGEIATGSPVSTELGHVLIEISSTHKKLNESLDENFKKFHKEIIHELEKKIELDVKYMNATLKRYQTEHKNKLESLEKSQAELKKIRRKSQGSRNALKYEHKEIEYVETVTSRQSEIQKFIADGCKEALLEEKRRFCFLVDKHCGFANHIHYYHLQSAELLNSKLPRWQETCVDAIKVPEKIMNMIEEIKTPASTPVSGTPQASPMIERSNVVRKDYDTLSKCSPKMPPAPSGRAYTSPLIDMFNNPATAAPNSQRVNNSTGTSEDPSLQRSVSVATGLNMMKKQKVKTIFPHTAGSNKTLLSFAQGDVITLLIPEEKDGWLYGEHDVSKARGWFPSSYTKLLEENETEAVTVPTPSPTPVRSISTVNLSENSSVVIPPPDYLECLSMGAAADRRADSARTTSTFKAPASKPETAAPNDANGTAKPPFLSGENPFATVKLRPTVTNDRSAPIIR
binding [1]: binds
binding [2]: binds

No constants are given. Whether binding was seen depends on the method and setting. In cells and extracts the contact can be indirect. A yes stands for co-enrichment or nearness to the bait. Other partners may have been found.
